Assay results from article doi:10.1101/2021.09.28.462098.
No constants are given. Whether binding was seen depends on the method and setting. Binding seen in cells or lysates may run through a third protein. Binding can be weak; no strength is given.

Sequences of proteins named here, by UniProt entry; tags and fusion partners are left off. A change or cut given only in a name is not applied to a line headed by its entry.
UniProt Q07335: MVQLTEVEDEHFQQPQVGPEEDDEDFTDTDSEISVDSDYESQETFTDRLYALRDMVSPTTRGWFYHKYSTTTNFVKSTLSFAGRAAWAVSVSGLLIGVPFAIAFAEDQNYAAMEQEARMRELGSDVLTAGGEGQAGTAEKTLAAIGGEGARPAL
UniProt V5ILY4: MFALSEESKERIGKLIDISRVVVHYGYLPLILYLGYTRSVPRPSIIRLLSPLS

Biological target: Tom22 with a hexahistidine tag at the C-terminus (Neurospora crassa) (UniProt Q07335)
Experiment: co-purification

binding: binds
Substance: Tom7 (from UniProt V5ILY4)
